Laboratory results reported in paper PMC3154542 (Growth Factors (Chur, Switzerland), 2011).
No constants are given. Whether binding was seen depends on the method and setting. For some assays here: Tags and fused reporters may be left off the sequences shown. One block for each binder: values may come before it.

The chains behind the UniProt entries cited, without tags or fusion partners. Residues count along the entry.
UniProt P37023, residues 22-118: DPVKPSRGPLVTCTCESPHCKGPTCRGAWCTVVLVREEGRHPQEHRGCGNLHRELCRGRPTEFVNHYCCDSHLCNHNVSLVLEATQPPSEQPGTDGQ

Key:
[1] = target: ALK1-Fc (activin receptor-like kinase 1 extracellular domain linked to the human IgG Fc region) (UniProt P37023); experiment: BLI; receptor extracellular domain-Fc chimeras immobilised on anti-human IgG Fc biosensor tips (ForteBio Octet RED); sixfold serial dilutions of human BMPs in solution; association 10 min, dissociation 30 min; global fit to a 1:1 Langmuir model; both purified
[2] = target: T1, ALK2-Fc (activin receptor-like kinase 2 extracellular domain linked to the human IgG Fc region) (UniProt Q04771); experiment: as above
T1 sequence: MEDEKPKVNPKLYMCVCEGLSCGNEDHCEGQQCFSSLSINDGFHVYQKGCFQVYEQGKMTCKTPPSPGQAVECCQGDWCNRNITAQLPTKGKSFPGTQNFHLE

- binding [1]: no binding
- binding [2]: no binding
B1: recombinant human bone morphogenetic protein 12 (rhBMP12) (ligand, UniProt Q7Z4P5 322-450, looked up)
chain: TALAGTRTAQGSGGGAGRGHGRRGRSRCSRKPLHVDFKELGWDDWIIAPLDYEAYHCEGLCDFPLRSHLEPTNHAIIQTLLNSMAPDAAPASCCVPARLSPISILYIDAANNVVYKQYEDMVVEACGCR
notes: bone morphogenetic protein 12 (BMP12, also known as GDF7), human, mature form; homodimer by non-reducing SDS-PAGE

- binding [1]: no binding
B2: recombinant human bone morphogenetic protein 2 (rhBMP2) (ligand, UniProt P12643 283-396, looked up)
chain: QAKHKQRKRLKSSCKRHPLYVDFSDVGWNDWIVAPPGYHAFYCHGECPFPLADHLNSTNHAIVQTLVNSVNSKIPKACCVPTELSAISMLYLDENEKVVLKNYQDMVVEGCGCR
notes: bone morphogenetic protein 2, human, mature domain; homodimer by non-reducing SDS-PAGE; source: CHO cells, purified (as in Wang et al. 1990)

- binding [1]: no binding
- binding [2]: no binding
B3: recombinant human bone morphogenetic protein 13 (rhBMP13) (ligand, UniProt Q6KF10 336-455, looked up)
chain: TAFASRHGKRHGKKSRLRCSKKPLHVNFKELGWDDWIIAPLEYEAYHCEGVCDFPLRSHLEPTNHAIIQTLMNSMDPGSTPPSCCVPTKLTPISILYIDAGNNVVYKQYEDMVVESCGCR
notes: bone morphogenetic protein 13 (BMP13, also known as GDF6), human, mature form; homodimer by non-reducing SDS-PAGE
